From PubChem BioAssay AID624297 (National Center for Advancing Translational Sciences (NCATS), 2012)
Hit rate of the full screen: of about 340,000 compounds, about 6,200 (1.8%) were called active. This list was built around the results that the source calls inconclusive (neither active nor inactive); the mix of calls is not that of the screen. The call rests on the fitted dose curve; in most records, active means well fitted activation curve with a large enough effect; inconclusive means small, poorly fitted or top-dose-only effect; inactive means no such curve, though single readings can be large or run the other way. Potencies beside an inconclusive call are fits to weak or partial responses and may not hold up.

Experiment: A quantitative high throughput screen for small molecules that induce DNA re-replication in SW480 colon adenocarcinoma cells. Further: nearly all actives have a fitted effect of over 55% in size. On re-replication activation: % of control where 0% means no effect.
Details: Hoechst DNA content imaging, 48 h; re-replication activation: at 46.1 µM (top of the series) unless noted
Outline: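 Image-based read-out: total Hoechst fluorescence of nuclei (405 nm excitation, 500-530 nm emission), with hits raising the fraction of high-intensity nuclei. SW480 colon cells incubated 48 hr with compounds at 37 C.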
Potency means the concentration at half of the fitted maximal effect.

Compound | re-replication activation | Potency
COC(=O)c1[nH]c2c(c1C)C(=O)CC(c1ccc(OC)c(OC)c1)C2 (stereo not drawn) | inactive: -5% | –
CC(C)Oc1ccc(CNS(=O)(=O)c2csc(C(N)=O)c2)cc1 | – | inconclusive: 2.59 µM [activator, full curve, poor fit]
O=C1Nc2ccccc2/C1=C/c1ccnc2ccccc12 | – | inconclusive: 2.59 µM [activator, partial curve, poor fit]
CCC(O)C1CCN(Cc2cn(Cc3ccccc3)nc2-c2cc3ccccc3o2)CC1 (stereo not drawn) | – | inconclusive: 29.1 µM [activator, single point]
COc1ccc(NC(=O)CCN2C(=O)/C(=C/c3ccc4c(c3)OCO4)SC2=S)cc1 | – | inconclusive: 8.2 µM [activator, partial curve, poor fit]
COc1ccc(C(CNC(=O)CSc2ccccc2F)N2CCOCC2)cc1 (stereo not drawn) | inactive: -132% | –
CC(C)(C)OC(=O)NCC1CCC(C(=O)NC[C@H](CC(=O)O)c2ccc(Cl)cc2)CC1 (stereo partly drawn) | inactive: 3.62% | –
CCOC(=O)c1c(CCl)nc2ccccc2c1-c1ccccc1 | – | inconclusive: 20.6 µM [activator, single point]
CCOC(=O)/C(=C\c1ccc(OC(F)F)cc1)C1=Nn2c(nnc2-c2ccc(Cl)cc2)SC1 | – | active: 16.4 µM
CCOc1ccc(S(=O)(=O)N2CCCCC2)cc1NC(=O)CN1C(=O)NC(C)(c2ccc(C)cc2)C1=O (stereo not drawn) | – | inconclusive: 18.4 µM [activator, single point]
CCOc1ccc(OCc2ccc(C(=O)Nc3ccc(Cl)cn3)o2)cc1 | inactive: -0.0692% | –
O=C(c1ccc(F)cc1)N1CCC2(CC1)NCCc1[nH]cnc12 | – | inconclusive: 0.146 µM [activator, full curve, poor fit]
Cc1ccc(N(C(=O)Cc2cccs2)C(C(=O)NC2CCCCC2)c2ccccn2)cc1C (stereo not drawn) | inactive: 5.83% | –
COc1ccccc1/C=N/Nc1nc(C)cc(C)n1 | inactive: -6.87% | –
Cn1c(COc2ccccc2)nnc1SCc1nc2ccccc2[nH]1 | – | inconclusive: 6.51 µM [activator, single point]
COC(=O)c1cc2ccccc2c(-c2c(OC)c(C(=O)OC)cc3ccccc23)c1OC | – | inconclusive: 16.4 µM [activator, partial curve]
C=CCN(c1ccccc1)S(=O)(=O)c1cccc(C(=O)N2CC(C)CC(C)C2)c1 (stereo not drawn) | – | inconclusive: 18.4 µM [activator, partial curve, poor fit]
COc1ccc(N2CCN(CCCNC(=O)CCC(=O)N3CCOc4ccc(Cl)cc43)CC2)cc1 | inactive: -1.38% | –
C=CCn1c(NCc2cc(Cl)ccc2O)nc2ccccc21 | – | inconclusive: 20.6 µM [activator, single point]
C=CCn1c(SCC(=O)Nc2ccc3c(c2)OCO3)nc2ccccc2c1=O | – | inconclusive: 14.6 µM [activator, partial curve]
COc1cc(NC(=O)[C@H](C)NC(=O)N2CCn3c2nc2ccccc23)cc(OC)c1 | – | inconclusive: 2.91 µM [activator, partial curve, poor fit]
Cn1nc([N+](=O)[O-])c(C(C#N)c2ccccn2)c(Cl)c1=O (stereo not drawn) | – | inconclusive: 23.1 µM [activator, single point]

Record cards, as listed above. Values in the order: re-replication activation | Potency
`CC(C)(C)OC(=O)NCC1CCC(C(=O)NC[C@H](CC(=O)O)c2ccc(Cl)cc2)CC1` (stereo partly drawn) as listed: inactive: 3.62% | –
`C=CCn1c(SCC(=O)Nc2ccc3c(c2)OCO3)nc2ccccc2c1=O` as listed: – | inconclusive: 14.6 µM [activator, partial curve]
`Cn1nc([N+](=O)[O-])c(C(C#N)c2ccccn2)c(Cl)c1=O` (stereo not drawn) as listed: – | inconclusive: 23.1 µM [activator, single point]

Next part:

Compound | re-replication activation | Potency
Cc1ccc(/C=N/NC(=O)Cc2c[nH]c3ccccc23)c(C)c1 | – | inconclusive: 14.1 µM [activator, partial curve, poor fit]
Cc1cc(C)cc(S(=O)(=O)c2cnc3ccccc3n2)c1 | – | inconclusive: 32.6 µM [activator, partial curve, poor fit]
O=C1N[C@@H](Cc2ccccc2)COC(=O)[C@@H](Cc2ccc(F)cc2)C/C=C\C[C@@H]1CC(=O)N(CCO)Cc1ccccc1 | – | inconclusive: 8.2 µM [activator, partial curve]
Cc1ccc(NC(=O)Cn2nnc(C(=O)NCCc3ccccc3)c2N)c(C)c1 | – | inconclusive: 29.1 µM [activator, single point]
Fc1ccccc1Nc1nc2c(s1)CCc1ccccc1-2 | inactive: 1.82% | –
CCc1ccc(C(=O)C(C)OC(=O)Cn2[nH]c(=O)c3ccccc3c2=O)cc1 (stereo not drawn) | inactive: 5.66% | –
Cc1cccn2c(=O)c3cc(S(=O)(=O)c4ccccc4)c(=N)n(CC4CCCO4)c3nc12 (stereo not drawn) | – | inconclusive: 5.8 µM [activator, full curve, poor fit]
O=C(NC(=S)Nc1cccc(Cl)c1N1CCCCC1)c1cccs1 | – | inconclusive: 2.59 µM [activator, partial curve, poor fit]
Cc1c(C(=O)Nc2nc3ccccc3[nH]2)oc2c(Cl)cccc12 | – | inconclusive: 20.6 µM [activator, single point]
O=C(CSc1cccc(C(F)(F)F)c1)N1CCN(S(=O)(=O)c2ccccc2)CC1 | – | inconclusive: 20.6 µM [activator, single point]
Cc1[nH]c2ccc(C(=O)NCc3ccccn3)cc2c1C | inactive: -6.14% | –
[O-]/C(=C(\C(=S)Nc1cccc2ccccc12)[n+]1ccccc1)c1ccc(Cl)s1 | inactive: -1.1% | –
COc1cc(-c2nccc3cc4c(cc23)OCO4)cc(OC)c1OC | – | active: 5.8 µM
CCOC(=O)C(C(=O)OCC)c1cc(Br)c2noc3c2c1C(=O)c1ccccc1-3 | – | inconclusive: 5.8 µM [activator, single point]
Cn1cc([N+](=O)[O-])c(C(=O)Nc2ccc(-c3nc4ccccc4[nH]3)cc2)n1 | – | inconclusive: 7.31 µM [activator, partial curve, poor fit]
COc1ccc2ccccc2c1/C=N\NC(=O)c1cccnc1 | – | active: 3.66 µM
CC(C)NC(=O)CSc1nc2[nH]ncc2c(=O)[nH]1 | inactive: -18.3% | –
O=S(=O)(Oc1ccccc1-c1ccccc1)c1ccccc1 | – | inconclusive: 20.6 µM [activator, single point]
CCOCCc1nnc(N)s1 | – | active: 14.6 µM
CN1C2=CC=CC=CC2=[N+](C)C12C=CC(=[N+]([O-])[O-])C=C2[N+](=O)[O-] (stereo not drawn) | inactive: -5.33% | –
COc1ccccc1NC(c1cccnc1)c1ccc2cccnc2c1O (stereo not drawn) | – | inconclusive: 29.1 µM [activator, single point]
